Data from patent publication US12686693 (dated 2026).
Square brackets hold non-standard residues; d marks the D form. * marks the point of attachment. Fmoc = O=C(OCC1c2ccccc2-c2ccccc21)*; Cbz = O=C(OCc1ccccc1)*; Boc = CC(C)(C)OC(=O)*; Aib = CC(C)(N)C(=O)O; OtBu = CC(C)(C)O*; tBu = CC(C)(C)*

Experiment: general procedure: solution-phase peptide synthesis; wscHCl/HOBt with TBAF (Procedure II(1)); TMS-OTf/MABR then Fmoc-amino acid chlor
Details: whole synthesis, scale 0.250 mmol
Substance Cbz-AAAA-OtBu has an isolated mass of 101 mg and an isolated yield of 82%. Substance Cbz-AAAE(OtBu)-OtBu has an isolated mass of 92.5 mg and an isolated yield of 61%. Work on Cbz-AAAM-OtBu yielded an isolated mass of 84.2 mg and an isolated yield of 61%. Cbz-AMAS(tBu)AA-OtBu showed an isolated mass of 50.5 mg. Cbz-K(Boc)AAA-OtBu showed an isolated mass of 131 mg and an isolated yield of 81%. With Cbz-MAAA-OtBu the isolated mass was 93.9 mg and the isolated yield was 68%. Substance Cbz-S(tBu)AAA-OtBu has an isolated mass of 109 mg and an isolated yield of 77%. Cbz-W(Boc)AAA-OtBu showed an isolated mass of 120 mg and an isolated yield of 68%. For Cbz-[Aib]GAAA-OtBu, the isolated mass was 77.5 mg and the isolated yield was 55%. Fmoc-AAAA-OtBu [listing 1 of 2 here] showed an isolated mass of 88.5 mg and an isolated yield of 61%. Fmoc-AAAA-OtBu [listing 2 of 2 here] showed an isolated mass of 118 mg and an isolated yield of 81%. With Fmoc-MAAA-OtBu the isolated mass was 99.2 mg and the isolated yield was 62%. For Fmoc-VAAA-OtBu, the isolated mass was 80.6 mg and the isolated yield was 53%.

Experiment: solution-phase peptide synthesis; wscHCl/HOBt with TBAF (Procedure II(1)); TMS-OTf/MABR then Fmoc-amino acid chlor
Details: whole synthesis, scale 0.250 mmol
In the case of Cbz-AMAS(tBu)AA-OtBu, the isolated yield is reported as 32%.
